Earlier results, collected in patent US10087165B2, “Fluoroquinolones and use thereof to treat bacterial infections” (UNIVERSITÉ PIERRE ET MARIE CURIE—PARIS 6 (UPMC), priority 2014, dated 2018).
Values after ≈ are worked out from the molar mass of the structure shown. At least one compound was matched to its structure with a doubt left.

How the values were obtained:
M. tuberculosis H37Rv = conditions: Table 2, published previously (Poissy et al. 2010); cited from earlier work
[1] = test system: M. tuberculosis within macrophages; conditions: Table 2; published previously (Poissy et al. 2010); cited from earlier work

COc1c(N2C[C@@H]3CCCN[C@@H]3C2)c(F)cc2c(=O)c(C(=O)O)cn(C3CC3)c12 [Moxifloxacin, moxifloxacin, reference compound]
MIC (M. tuberculosis) WT (M. tuberculosis H37Rv): 0.63 µM (≈ 0.253 µg/mL)
Intra mac. (activity inside macrophages) [1]: 4.16 µM
